# Measurements published in PMC11031135, “Chemo-enzymatic synthesis of tetrasaccharide linker peptides to study the divergent step in glycosaminoglycan biosynthesis” (Glycobiology, 2024).
# Results are given in words; binding and its absence hold for the method and conditions named.
# B1: human XylT-I (peptide-O-xylosyltransferase 1), residues 232-959 (enzyme, UniProt Q86Y38 232-959)
# chain: DVSRPPHARKTGGSSPETKYDQPPKCDISGKEAISALSRAKSKHCRQEIGETYCRHKLGLLMPEKVTRFCPLEGKANKNVQWDEDSVEYMPANPVRIAFVLVVHGRASRQLQRMFKAIYHKDHFYYIHVDKRSNYLHRQVLQVSRQYSNVRVTPWRMATIWGGASLLSTYLQSMRDLLEMTDWPWDFFINLSAADYPIRTNDQLVAFLSRYRDMNFLKSHGRDNARFIRKQGLDRLFLECDAHMWRLGDRRIPEGIAVDGGSDWFLLNRRFVEYVTFSTDDLVTKMKQFYSYTLLPAESFFHTVLENSPHCDTMVDNNLRITNWNRKLGCKCQYKHIVDWCGCSPNDFKPQDFHRFQQTARPTFFARKFEAVVNQEIIGQLDYYLYGNYPAGTPGLRSYWENVYDEPDGIHSLSDVTLTLYHSFARLGLRRAETSLHTDGENSCRYYPMGHPASVHLYFLADRFQGFLIKHHATNLAVSKLETLETWVMPKKVFKIASPPSDFGRLQFSEVGTDWDAKERLFRNFGGLLGPMDEPVGMQKWGKGPNVTVTVIWVDPVNVIAATYDILIESTAEFTHYKPPLNLPLRPGVWTVKILHHWVPVAETKFLVAPLTFSNRQPIKPEEALKLHNGPLRNAYMEQSFQSLNPVLSLPINPAQVEQARRNAASTGTALEGWLDSLVGGMWTAMDICATGPTACPVMQTCSQTAWSSFSPDPKSELGAVKPDGRLR
# Target: human XylT-I (peptide-O-xylosyltransferase 1), residues 232-959 (human) (UniProt Q86Y38)
# Assay: condition: final concentration between 50 nM and 125 nM; mass photometry; Refeyn OneMP; final protein concentration between 50 nM and 125 nM; XylT1 and SUMO-β3GalT6 in Tris buffer A (50 mM Tris pH 7.4, 250 mM NaCl) with 5% glycerol, β4GalT7 in S200 buffer (25 mM MES pH 6.5, 200 mM NaCl, 5% glycerol), GlcAT-1 in HEPES buffer; duplicates; both purified
binder,measurement,value
B1,binding,no binding
